Data: paper PMC4869170
These are yes or no findings as the source states them, for the method shown. In cells and extracts the contact can be indirect. These calls come from enrichment with a bait or labelling near it, and not all partners need be listed.

Protein sequences, listed by entry. Tags and fused reporters are not part of them.
UniProt Q9Y266: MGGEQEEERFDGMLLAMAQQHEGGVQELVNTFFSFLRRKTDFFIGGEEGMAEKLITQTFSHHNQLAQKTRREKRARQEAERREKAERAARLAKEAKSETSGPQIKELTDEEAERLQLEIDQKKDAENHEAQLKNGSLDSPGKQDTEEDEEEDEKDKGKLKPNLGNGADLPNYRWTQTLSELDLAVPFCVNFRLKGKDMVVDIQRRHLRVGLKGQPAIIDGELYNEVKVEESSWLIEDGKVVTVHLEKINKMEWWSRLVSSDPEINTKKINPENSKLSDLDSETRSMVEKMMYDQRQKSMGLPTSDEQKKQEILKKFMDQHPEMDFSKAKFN
UniProt Q92949: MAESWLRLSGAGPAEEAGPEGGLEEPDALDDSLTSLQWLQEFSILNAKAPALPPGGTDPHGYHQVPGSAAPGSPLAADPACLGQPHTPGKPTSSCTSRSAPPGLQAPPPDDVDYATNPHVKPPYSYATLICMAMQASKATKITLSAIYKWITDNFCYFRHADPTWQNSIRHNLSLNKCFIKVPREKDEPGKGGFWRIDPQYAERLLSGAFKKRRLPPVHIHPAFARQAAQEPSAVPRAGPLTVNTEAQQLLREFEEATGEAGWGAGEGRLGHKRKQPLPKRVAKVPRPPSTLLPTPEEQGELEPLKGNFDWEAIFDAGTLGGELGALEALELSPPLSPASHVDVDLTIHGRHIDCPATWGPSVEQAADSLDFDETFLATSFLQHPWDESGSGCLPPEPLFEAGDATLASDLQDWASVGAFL
UniProt Q15599: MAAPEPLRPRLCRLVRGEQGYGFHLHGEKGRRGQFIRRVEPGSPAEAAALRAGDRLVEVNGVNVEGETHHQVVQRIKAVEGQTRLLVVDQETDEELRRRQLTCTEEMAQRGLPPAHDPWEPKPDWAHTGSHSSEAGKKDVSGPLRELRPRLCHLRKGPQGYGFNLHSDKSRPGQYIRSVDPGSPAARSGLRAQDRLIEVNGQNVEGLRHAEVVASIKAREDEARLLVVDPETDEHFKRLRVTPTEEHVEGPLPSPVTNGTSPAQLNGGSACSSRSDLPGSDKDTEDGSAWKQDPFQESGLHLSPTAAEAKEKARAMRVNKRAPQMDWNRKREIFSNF
UniProt P25685: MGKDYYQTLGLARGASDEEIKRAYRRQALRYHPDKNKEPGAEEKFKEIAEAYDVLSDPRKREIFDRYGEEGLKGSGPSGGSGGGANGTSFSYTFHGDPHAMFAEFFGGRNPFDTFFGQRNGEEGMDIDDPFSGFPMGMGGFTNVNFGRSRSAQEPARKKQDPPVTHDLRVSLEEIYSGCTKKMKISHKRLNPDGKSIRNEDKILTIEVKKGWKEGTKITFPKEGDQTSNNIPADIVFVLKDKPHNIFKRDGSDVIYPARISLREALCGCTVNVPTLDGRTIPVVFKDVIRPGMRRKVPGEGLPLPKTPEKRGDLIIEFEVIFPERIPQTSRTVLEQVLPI
UniProt Q9UDY4: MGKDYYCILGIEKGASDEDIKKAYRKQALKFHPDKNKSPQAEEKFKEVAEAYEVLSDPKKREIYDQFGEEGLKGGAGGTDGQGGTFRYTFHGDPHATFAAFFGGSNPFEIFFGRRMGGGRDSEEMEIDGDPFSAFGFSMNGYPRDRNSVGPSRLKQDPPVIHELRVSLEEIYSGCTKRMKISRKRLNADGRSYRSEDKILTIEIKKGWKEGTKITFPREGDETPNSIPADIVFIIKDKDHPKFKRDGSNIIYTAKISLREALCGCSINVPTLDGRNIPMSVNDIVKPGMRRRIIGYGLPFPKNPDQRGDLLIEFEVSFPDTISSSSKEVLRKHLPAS
UniProt P32780: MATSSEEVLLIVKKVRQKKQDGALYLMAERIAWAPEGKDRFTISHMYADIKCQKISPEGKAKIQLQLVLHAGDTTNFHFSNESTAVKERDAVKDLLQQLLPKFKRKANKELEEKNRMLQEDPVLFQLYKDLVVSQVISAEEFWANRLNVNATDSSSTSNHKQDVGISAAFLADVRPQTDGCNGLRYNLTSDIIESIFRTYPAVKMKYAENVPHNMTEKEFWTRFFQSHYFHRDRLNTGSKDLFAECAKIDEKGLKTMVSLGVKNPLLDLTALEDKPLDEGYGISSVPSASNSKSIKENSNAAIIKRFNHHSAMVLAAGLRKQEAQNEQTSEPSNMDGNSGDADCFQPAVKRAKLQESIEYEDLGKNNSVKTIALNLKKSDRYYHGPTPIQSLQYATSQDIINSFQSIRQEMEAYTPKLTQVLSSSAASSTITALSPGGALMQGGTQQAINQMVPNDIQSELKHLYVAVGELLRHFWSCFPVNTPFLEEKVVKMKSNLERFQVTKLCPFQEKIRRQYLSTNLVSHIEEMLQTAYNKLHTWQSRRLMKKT
UniProt O75147: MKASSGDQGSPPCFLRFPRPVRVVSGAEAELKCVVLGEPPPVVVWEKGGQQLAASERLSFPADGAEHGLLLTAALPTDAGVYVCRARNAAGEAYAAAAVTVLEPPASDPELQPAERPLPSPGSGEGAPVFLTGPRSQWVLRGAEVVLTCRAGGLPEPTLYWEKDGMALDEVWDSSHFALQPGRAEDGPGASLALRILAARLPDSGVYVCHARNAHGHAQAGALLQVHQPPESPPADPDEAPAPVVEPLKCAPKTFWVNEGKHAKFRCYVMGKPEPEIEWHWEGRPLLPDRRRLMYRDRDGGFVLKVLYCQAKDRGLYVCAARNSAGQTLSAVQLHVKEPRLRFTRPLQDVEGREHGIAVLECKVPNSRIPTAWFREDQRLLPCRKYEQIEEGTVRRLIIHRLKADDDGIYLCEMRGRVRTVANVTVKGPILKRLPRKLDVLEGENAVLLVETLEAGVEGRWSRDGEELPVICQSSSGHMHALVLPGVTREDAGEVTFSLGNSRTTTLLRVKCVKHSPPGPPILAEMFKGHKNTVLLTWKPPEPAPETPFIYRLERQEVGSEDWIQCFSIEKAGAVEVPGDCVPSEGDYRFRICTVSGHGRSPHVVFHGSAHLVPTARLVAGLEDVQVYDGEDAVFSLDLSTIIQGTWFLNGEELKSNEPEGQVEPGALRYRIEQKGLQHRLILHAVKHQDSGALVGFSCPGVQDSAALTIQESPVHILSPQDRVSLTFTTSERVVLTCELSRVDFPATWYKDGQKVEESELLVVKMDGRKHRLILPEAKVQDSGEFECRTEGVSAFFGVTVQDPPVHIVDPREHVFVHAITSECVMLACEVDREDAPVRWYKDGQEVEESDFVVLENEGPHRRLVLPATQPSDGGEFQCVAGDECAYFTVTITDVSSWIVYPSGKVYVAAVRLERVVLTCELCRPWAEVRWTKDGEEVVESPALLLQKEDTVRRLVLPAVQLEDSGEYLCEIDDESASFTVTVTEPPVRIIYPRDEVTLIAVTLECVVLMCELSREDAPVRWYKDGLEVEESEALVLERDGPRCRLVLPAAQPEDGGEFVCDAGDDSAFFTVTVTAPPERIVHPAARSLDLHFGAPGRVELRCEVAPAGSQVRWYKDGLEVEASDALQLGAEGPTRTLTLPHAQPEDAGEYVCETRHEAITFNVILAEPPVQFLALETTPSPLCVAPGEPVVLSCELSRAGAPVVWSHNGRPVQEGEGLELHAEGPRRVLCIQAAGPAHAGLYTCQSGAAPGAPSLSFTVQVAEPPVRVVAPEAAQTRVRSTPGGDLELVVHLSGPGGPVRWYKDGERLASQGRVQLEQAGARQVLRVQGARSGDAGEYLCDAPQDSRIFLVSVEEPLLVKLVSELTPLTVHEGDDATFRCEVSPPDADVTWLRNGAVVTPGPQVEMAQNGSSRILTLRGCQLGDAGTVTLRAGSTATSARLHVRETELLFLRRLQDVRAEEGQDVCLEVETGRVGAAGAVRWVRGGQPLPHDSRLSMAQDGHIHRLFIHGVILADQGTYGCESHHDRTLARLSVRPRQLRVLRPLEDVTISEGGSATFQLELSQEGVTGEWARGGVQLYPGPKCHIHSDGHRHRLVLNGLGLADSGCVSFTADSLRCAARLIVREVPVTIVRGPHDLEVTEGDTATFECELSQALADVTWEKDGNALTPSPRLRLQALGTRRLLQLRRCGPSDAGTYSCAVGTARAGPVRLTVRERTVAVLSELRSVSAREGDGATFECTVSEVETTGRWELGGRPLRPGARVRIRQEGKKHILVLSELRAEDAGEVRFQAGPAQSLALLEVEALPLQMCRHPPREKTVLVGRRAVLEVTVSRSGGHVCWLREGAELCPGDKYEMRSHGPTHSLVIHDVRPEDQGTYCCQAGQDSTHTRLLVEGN
UniProt P53350: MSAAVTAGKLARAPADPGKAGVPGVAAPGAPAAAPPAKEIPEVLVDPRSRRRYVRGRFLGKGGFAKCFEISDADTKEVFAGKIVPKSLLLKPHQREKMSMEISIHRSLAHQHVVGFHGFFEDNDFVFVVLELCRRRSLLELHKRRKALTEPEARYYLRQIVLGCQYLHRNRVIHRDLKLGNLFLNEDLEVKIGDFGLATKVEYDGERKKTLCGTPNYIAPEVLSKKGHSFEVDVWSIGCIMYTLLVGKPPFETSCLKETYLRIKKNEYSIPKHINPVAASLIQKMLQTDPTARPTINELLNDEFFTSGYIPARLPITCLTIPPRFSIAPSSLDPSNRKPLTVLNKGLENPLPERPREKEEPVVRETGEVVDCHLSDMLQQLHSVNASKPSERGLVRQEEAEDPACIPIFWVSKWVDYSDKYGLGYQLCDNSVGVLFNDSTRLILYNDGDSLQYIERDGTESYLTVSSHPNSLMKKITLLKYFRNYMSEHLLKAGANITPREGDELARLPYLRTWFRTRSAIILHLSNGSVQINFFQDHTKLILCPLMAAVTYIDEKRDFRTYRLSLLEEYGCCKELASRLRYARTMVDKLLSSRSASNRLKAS
UniProt P46937: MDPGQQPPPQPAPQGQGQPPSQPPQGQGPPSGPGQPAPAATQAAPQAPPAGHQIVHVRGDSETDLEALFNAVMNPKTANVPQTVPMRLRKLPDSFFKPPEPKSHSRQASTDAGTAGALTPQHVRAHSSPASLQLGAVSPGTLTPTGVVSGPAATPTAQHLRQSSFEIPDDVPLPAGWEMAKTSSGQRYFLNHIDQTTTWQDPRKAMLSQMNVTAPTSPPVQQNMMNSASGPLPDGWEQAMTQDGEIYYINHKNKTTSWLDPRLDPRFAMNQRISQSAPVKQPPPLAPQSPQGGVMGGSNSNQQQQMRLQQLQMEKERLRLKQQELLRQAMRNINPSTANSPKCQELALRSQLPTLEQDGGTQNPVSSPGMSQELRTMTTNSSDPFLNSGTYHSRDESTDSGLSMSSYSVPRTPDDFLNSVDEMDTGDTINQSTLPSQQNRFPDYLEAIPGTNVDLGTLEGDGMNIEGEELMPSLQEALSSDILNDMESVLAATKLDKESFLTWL

Key:
NUDC (human) = NUDC (human) (UniProt Q9Y266); assay: affinity purification with mass spectrometry; SF-TAP-tagged bait overexpressed in HEK293T; lysis in 0.5% NP-40 in TBS (30 mM Tris-HCl pH 7.4, 150 mM NaCl); two steps at 4 °C: Strep-Tactin superflow (desthiobiotin elution), then anti-FLAG M2 agarose (FLAG peptide elution); LC-MS/MS; interactions scored by socioaffinity
DNAAF1 (human) = target: T1, DNAAF1 (human) (UniProt Q8NEP3); assay: as above
T1 sequence: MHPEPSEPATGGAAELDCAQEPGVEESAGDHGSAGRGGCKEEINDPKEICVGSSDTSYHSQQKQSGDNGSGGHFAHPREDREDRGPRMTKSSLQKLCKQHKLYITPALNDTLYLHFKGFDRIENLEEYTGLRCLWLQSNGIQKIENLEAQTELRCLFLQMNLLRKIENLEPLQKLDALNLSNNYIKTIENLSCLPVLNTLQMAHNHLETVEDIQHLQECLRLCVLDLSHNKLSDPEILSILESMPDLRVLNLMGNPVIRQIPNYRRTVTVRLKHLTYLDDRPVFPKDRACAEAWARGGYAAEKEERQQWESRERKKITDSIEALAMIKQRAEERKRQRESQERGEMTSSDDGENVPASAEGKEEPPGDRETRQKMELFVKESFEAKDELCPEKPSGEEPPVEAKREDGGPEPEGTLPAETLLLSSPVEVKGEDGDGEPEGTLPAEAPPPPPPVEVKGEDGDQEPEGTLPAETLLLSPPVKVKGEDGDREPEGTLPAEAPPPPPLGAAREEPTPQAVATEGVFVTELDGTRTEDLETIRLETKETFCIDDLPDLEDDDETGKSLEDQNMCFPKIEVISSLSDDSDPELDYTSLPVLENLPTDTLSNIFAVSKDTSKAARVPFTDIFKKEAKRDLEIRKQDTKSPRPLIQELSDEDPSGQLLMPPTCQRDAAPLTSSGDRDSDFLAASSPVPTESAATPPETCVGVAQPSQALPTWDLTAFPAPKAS

FAM161A (human) = target: T2, FAM161A (human) (UniProt Q3B820); assay: as above
T2 sequence: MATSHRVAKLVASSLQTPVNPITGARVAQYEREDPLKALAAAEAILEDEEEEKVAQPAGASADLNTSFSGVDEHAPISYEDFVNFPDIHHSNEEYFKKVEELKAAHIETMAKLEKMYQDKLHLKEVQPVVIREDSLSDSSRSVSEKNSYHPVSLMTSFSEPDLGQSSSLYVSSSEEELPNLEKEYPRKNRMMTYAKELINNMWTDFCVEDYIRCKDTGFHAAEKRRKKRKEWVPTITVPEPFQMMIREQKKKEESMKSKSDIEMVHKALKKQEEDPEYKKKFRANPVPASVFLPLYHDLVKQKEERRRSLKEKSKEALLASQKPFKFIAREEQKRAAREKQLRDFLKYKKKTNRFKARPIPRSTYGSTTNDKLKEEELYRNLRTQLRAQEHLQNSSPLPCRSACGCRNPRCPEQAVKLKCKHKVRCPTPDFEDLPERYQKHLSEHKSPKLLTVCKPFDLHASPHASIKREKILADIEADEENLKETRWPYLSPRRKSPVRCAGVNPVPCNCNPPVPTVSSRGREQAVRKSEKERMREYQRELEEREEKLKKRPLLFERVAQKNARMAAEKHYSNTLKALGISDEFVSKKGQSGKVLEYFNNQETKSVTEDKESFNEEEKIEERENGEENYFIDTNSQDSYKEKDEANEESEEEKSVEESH

ANKS3 (human) = target: T3, ANKS3 (human) (UniProt Q6ZW76); assay: as above
T3 sequence: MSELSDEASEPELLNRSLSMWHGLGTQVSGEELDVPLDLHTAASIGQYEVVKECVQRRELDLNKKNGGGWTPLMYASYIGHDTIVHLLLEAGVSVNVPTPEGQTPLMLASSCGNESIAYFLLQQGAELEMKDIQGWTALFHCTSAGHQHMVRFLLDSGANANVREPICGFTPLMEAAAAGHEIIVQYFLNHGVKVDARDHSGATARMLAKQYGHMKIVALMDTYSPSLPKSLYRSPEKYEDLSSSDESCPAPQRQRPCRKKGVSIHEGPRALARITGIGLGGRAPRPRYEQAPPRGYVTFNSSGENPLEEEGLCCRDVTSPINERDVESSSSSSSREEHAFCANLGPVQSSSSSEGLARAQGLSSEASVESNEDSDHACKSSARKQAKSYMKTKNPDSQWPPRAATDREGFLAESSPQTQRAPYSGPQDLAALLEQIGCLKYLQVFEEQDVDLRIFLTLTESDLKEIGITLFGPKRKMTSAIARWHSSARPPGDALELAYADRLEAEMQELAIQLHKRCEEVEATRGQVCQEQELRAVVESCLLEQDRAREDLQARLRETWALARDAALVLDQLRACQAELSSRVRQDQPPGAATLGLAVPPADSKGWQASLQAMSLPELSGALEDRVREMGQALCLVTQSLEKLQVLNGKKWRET

[1] = target: ciliogenesis transcription factor FOXJ1 (human) (UniProt Q92949); assay: affinity purification with mass spectrometry; SF-TAP of tagged baits overexpressed in HEK293T (Strep-Tactin, then anti-FLAG M2 agarose, FLAG peptide elution; lysis 0.5% NP-40 in TBS, 4 °C); LC-MS/MS; interactions scored by socioaffinity (spoke and matrix evidence), FDR/FPR≤0.1
SLC9A3R2 (human) = SLC9A3R2 (human) (UniProt Q15599); assay: as above

**Q.** With DNAJB1 (from UniProt P25685 1-340) as the substance, how does the binding (NUDC (human)) read?
**A.** binds

**Q.** DNAJB4 (from UniProt Q9UDY4 1-337) was tested. Which binding (NUDC (human)) did it give?
**A.** binds

**Q.** How did the binding (NUDC (human)) turn out when GTF2H1 (from UniProt P32780 1-548) was run?
**A.** binds

**Q.** OBSL1 (from UniProt O75147 1-1896) was tested. Which binding (DNAAF1 (human)) did it give?
**A.** binds

**Q.** And the binding (FAM161A (human))?
**A.** binds

**Q.** And the binding (ANKS3 (human))?
**A.** binds

**Q.** Which binding [1] does the source give for “Polo-like kinase 1 (from UniProt P53350 1-603)” here?
**A.** binds

**Q.** For YAP1 (from UniProt P46937 1-504), which binding (SLC9A3R2 (human)) is on record?
**A.** binds
